Measured values: paper PMC5430609
Results are given in words; binding and its absence hold for the method and conditions named. In cells and extracts the contact can be indirect. Some results given as binding are weak or reduced against the parent protein; the word gives no strength. Where a sequence is shown, tags or fusion partners need not be part of it.

Sequences of proteins named here, by UniProt entry; tags and fusion partners are left off.
UniProt P49407: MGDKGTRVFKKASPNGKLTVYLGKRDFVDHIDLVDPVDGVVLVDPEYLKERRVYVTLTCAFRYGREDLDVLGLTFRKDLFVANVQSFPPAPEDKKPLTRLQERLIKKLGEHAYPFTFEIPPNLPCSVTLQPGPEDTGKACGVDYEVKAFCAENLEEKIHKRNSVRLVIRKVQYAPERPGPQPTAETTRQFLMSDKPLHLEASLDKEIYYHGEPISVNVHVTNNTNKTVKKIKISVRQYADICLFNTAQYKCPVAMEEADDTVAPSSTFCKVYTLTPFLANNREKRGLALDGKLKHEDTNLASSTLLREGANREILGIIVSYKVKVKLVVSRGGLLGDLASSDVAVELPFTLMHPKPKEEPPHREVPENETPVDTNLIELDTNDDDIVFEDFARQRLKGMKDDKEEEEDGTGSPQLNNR
UniProt P32121: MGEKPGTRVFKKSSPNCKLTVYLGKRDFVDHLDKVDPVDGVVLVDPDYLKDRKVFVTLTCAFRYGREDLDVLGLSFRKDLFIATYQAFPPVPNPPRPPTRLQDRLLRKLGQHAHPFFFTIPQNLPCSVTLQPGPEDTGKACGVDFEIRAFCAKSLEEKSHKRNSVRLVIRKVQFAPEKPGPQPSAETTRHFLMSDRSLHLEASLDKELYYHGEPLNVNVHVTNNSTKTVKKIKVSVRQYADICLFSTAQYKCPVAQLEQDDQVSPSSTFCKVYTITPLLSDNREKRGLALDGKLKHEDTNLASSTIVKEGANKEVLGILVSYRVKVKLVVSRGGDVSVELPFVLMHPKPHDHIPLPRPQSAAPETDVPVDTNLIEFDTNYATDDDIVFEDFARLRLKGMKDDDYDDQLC

Biological target: T1, melanopsin fused to the C-terminal fragment of click beetle luciferase (UniProt Q9UHM6)
T1 sequence: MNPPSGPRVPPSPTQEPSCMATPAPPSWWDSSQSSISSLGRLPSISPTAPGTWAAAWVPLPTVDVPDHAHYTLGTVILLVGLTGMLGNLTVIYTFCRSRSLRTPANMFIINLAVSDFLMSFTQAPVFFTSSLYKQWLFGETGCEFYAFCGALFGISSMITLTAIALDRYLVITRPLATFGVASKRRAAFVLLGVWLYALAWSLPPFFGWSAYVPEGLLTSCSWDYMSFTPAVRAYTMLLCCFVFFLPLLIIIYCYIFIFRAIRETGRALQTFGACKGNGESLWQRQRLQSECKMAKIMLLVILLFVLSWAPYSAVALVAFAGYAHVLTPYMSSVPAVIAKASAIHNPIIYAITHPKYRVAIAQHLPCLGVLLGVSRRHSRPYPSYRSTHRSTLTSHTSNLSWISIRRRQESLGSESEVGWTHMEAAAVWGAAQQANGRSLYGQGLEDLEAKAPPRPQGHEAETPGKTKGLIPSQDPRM
Assay: split reporter; split click beetle luciferase: opsin-ElucC and ElucN-β-arrestin in HEK293 cells (stable expression for JellyOp and F112A), 10 uM 9-cis retinal, dark against white room light 0.1 mW cm^-2, luminescence on a plate reader

ElucN-β-arrestin 1 (N-terminal luciferase fragment fused to the N-terminus of β-arrestin 1) (from UniProt P49407 1-418)
binding: binds

ElucN-β-arrestin 2 (N-terminal luciferase fragment fused to the N-terminus of β-arrestin 2) (from UniProt P32121 1-409)
binding: binds
